# Reference: PubChem BioAssay AID1347423 (Functional Genomics Laboratory (NCATS/FGL), 2020)
# In all, about 52,000 sequences went through this assay and about 210 (0.4%) were called active.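 The calls were made as follows: active = gene whose silencing raises cell survival under the drug, median off-target-corrected z-score across its silencing RNAs 2 or more; inactive = the rest.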 This is one part of the list.
# Assay: Resistance to Poly (ADP-Ribose) Polymerase inhibitor: Gene Identification via Genome-wide siRNA Screen
# Conditions: mouse BRCA2 R2336H ES cells, olaparib, CellTiter-Glo viability; stronger effect = higher value
# Procedure, shortened: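 Genome-wide siRNA screen (3 siRNAs/gene, 20 nM) in mouse ES cells carrying hypomorphic BRCA2 R2336H; olaparib 500 nM added 48 h post-transfection, CellTiter-Glo viability 72 h later. Normalized to plate-median negative control; MAD z-scores, gene median, seed-adjusted.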
row,Sequence,z-score
1,GGAGUUCUUCGUUUCCCGATT against E330017E16,inactive: -0.179
2,CCGUGGAUUGUGGAAUAAUTT against E430012M05Rik,inactive: 0.194
3,GGUGAACACCGUUCAGUUUTT against 1500041N16Rik,inactive: 0.537
4,CCAGAUUUUUACCAUGAAGTT against Slc2a5,inactive: 1.67
5,CCCAUUGGAACUGCUGUAATT against BC019776,inactive: 1.61
6,GGUAUAUCCCUCACAAAAGTT against D330014H01Rik,inactive: 0.996
7,CGGGAUAUUAGGUUAUUCCTT against Csad,inactive: 0.199
8,GCCCAUCCCUUCCUUACGATT against C330027G06Rik,inactive: 1.48
9,GGAUGUCACUCUUGCAUUGTT against Olfr948,inactive: -1.43
10,CCUACCCAAACCUACUAAATT against Gpt2,inactive: -0.724
11,GGACAGCAGUCAGGAGACATT against BC017158,inactive: -0.365
12,GACAGGUCAUGAAAAUGAGTT against Smurf2,inactive: -0.0544
13,GGAUCGUGAGGAUCAAUCCTT against Myh14,inactive: 0.224
14,GGAAAGAAACAAGACAGAATT against Cul3,inactive: -1.12
15,GCCAACAAUAUAAUUCAAGTT against Abca5,inactive: 1.93
16,GGCUAUUGAGCUCUUUGUCTT against 1810019P04Rik,inactive: -1.75
17,GGUACUGCUGCUUCAGCAUTT against Palm2,inactive: 0.471
18,GGCUGAAAGCAAAACUUAATT against Klhl4,inactive: 1.3
19,GGUUUUUACUUUUUGGUCCTT against Tm4sf11,inactive: 0.169
20,GGCAUGUUCUCUAAGGAAGTT against C920025J10,inactive: 0.264
21,GGAUGAGCUAAAUAAAGCUTT against Slc6a15,inactive: 1.09
22,GUUCUUCUCUGUUGGUGCUTT against V1rc18,inactive: 3.03

row,Sequence,z-score
1,GGAAAUAAAUGAGUGUUUGTT against Slc35c2,inactive: 0.62
2,GCAAUGUGUAUCAGCCGACTT against Gprc5b,inactive: -0.195
3,GGACUUUGUAACUAAUACCTT against Slco2b1,inactive: -0.309
4,GGAGGUUCUUCAGUACUGCTT against Aplp2,inactive: 0.175
5,GGAAAAAGCAUAGAUAGGUTT against Amigo3,inactive: 0.426
6,CCAACUUAUCAACAUCCGGTT against Plekha6,inactive: 1.56
7,GGAGAAAAUAAACUCUCUCTT against Capns1,inactive: 0.434
8,GGAGAUCCUGGAAGACUUCTT against 4833422F24Rik,inactive: -1.85
9,CGUUCUUUUACAGUGCUUGTT against Rnf127,inactive: 0.142
10,CCUCGUUACAUCCUCCCUGTT against Pold1,inactive: -2.15
11,GGCCAUCAAAUCUAUAUACTT against Sucnr1,inactive: 2.02
12,GGCAACAUGAUGAUUAUAGTT against Olfr1220,inactive: -0.523
13,GGUGAUGGUAGCAAGACUGTT against Dcpp,inactive: -0.267
14,GGAAGAGCUUCAUCAGCCATT against Acoxl,inactive: -0.685
15,GAUUUUGGGAAUAUAGUGCTT against Klra16,inactive: -0.568
16,GGUAUUUAUUGACAGGUGATT against Eat2,inactive: 0.828
17,GCAUUUCUUUCUUGCCUUCTT against Olfr1276,inactive: 0.613
18,GCUCAGUCUCUUGGGUGGUTT against Cel,inactive: -0.868
19,GCAUACGAUAUCACCAUAUTT against Dsg1a,inactive: 1.78
20,GGUAGAAGAAUUCAGUUUUTT against Smpd3,inactive: 0.155
21,GCUAGCCAUGGUUACCCACTT against Slc39a3,inactive: -0.618
22,GGCAACAAUAGUUCAGAAGTT against Rps6ka5,inactive: 0.539

# A run of entries from the list above, as a working copy:
row,Sequence,z-score
15,GAUUUUGGGAAUAUAGUGCTT against Klra16,inactive: -0.568
16,GGUAUUUAUUGACAGGUGATT against Eat2,inactive: 0.828
17,GCAUUUCUUUCUUGCCUUCTT against Olfr1276,inactive: 0.613
18,GCUCAGUCUCUUGGGUGGUTT against Cel,inactive: -0.868

# More results:

row,Sequence,z-score
1,GCCAUACUUCCCUACAAAATT against 4922504H04Rik,inactive: 0.865
2,GGGUGUUUGGAGAUUGUGUTT against C030036P15Rik,inactive: -0.604
3,CCUGGAAACUAUUUUGAUGTT against 3110023G01Rik,inactive: 0.259
4,CCUCAUGUCUACAAAGUUATT against 9130002C22Rik,inactive: -0.524
5,CCUUUCCUGACAAUGUACATT against Pvrl1,inactive: 0.235
6,GGAUGAUGGAAUAUCUCAATT against Pcdhb10,inactive: 1.36
7,CCAUCGAUCACGUCAAAGGTT against 1810017N16Rik,inactive: 1.79
8,GGAGGAAUUCUCCUUAUUCTT against Cnnm3,inactive: -0.749
9,GGCCUGUUUUUAAAAAGGATT against Tm4sf2,inactive: -0.222
10,CCAAUGAGAGGUAAAAAACTT against C630007B19Rik,inactive: 0.119
11,CCUUCCAAUCUGGUUAAGUTT against Spock1,inactive: 1.65
12,GCCGGAUGAAGGACUUUACTT against Dcc,inactive: -1.03
13,GCCCAAUUUUACAUUGUUUTT against Gpx1,inactive: -0.866
14,CCCACUUUGAGGAAAGCUATT against BC063749,inactive: -0.333
15,GGUAUUCUUCGAAUUUUUCTT against Egln1,inactive: 1.26
16,GGAUGGUAGCAGCAACAACTT against Grem2,inactive: 2.52
17,GGAGCUUGAAUAUGUUCUATT against Capn9,inactive: 1.4
18,CCAAAACACUACCAAUAAUTT against Tinag,inactive: 0.423
19,GGGCAGAUCCUAAUAAGCATT against Irs3,inactive: 0.585
20,GCAACAUCAGGUAACCUUUTT against Zfp526,inactive: -0.5
21,GGAGCAGAUGGUCCAUUGUTT against Ly6g5c,inactive: -2.27
22,CGGAGAGUAUGAGAGUUCCTT against D17Ertd288e,inactive: 0.0647
